Results deposited as PubChem BioAssay AID504793 (Drosophila RNAi Screening Center, 2011).
The screen tested about 23,000 reagents; below is a random part of those that have a named target and a result. In the full data, 62 (0.27%) got an active call. 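Calls come from follow-up tests whose scores are not deposited, so confirmed genes may have low counts here; counts are not normalised per plate.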 Raw values vary from plate to plate and are shown uncorrected. A plus sign joins genes that one reagent is predicted to hit. Reagent sequences are not shown.

Aim: 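Whole-genome screen for parts of the DNA damage checkpoint at G2/M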 (primary screen)
Cells: Drosophila S2R+ cells
Reagents: long dsRNA against Drosophila genes, about 0.25 µg dsRNA per well
Time to read-out: 4 days of dsRNA, then 4 hours of drug before read-out
Treatment: doxorubicin 0.5 µM for 4 hours to cause double-strand breaks, in cells also given a low, harmless dose of dsRNA against nbs to sensitise the assay
Detection: 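Mitotic index as the number of phospho-histone H3-positive cells in each well following doxorubicin, given as raw counts without normalisation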
Scale: mitotic cells: higher = more cells in mitosis, weaker G2 arrest
Hit rule: 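a call needs confirmation in secondary tests, with other dsRNAs and a check of mitotic timing without damage, not just a high primary count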
Meaning of the calls: active = confirmed in follow-up tests; inactive = not confirmed

predicted target | dsRNA | mitotic cells, replicate 1 | mitotic cells, replicate 2 | call
Ubc6 | DRSC12370 | 16 | – | inactive
Ubc6 | DRSC28862 | 4 | – | inactive
CG16854 | DRSC02536 | 2 | – | inactive
CG13640 | DRSC14639 | 18 | – | inactive
crm | DRSC18754 | 11 | – | inactive
crm | DRSC26508 | 4 | – | inactive
crm | DRSC39136 | 7 | – | inactive
CG11997 | DRSC14464 | 7 | – | inactive
CG11997 | DRSC26460 | 8 | – | inactive
CG15701 | DRSC06572 | 9 | – | inactive
snRNP-U1-C | DRSC15804 | 12 | – | inactive
CrebB | DRSC20232 | 11 | – | inactive
CrebB | DRSC23558 | 6 | – | inactive
Gas41 | DRSC03156 | 7 | – | inactive
Tcs6 + PIG-P | DRSC13742 | 12 | – | inactive
Tcs6 + PIG-P | DRSC14893 | 11 | – | inactive
CG13170 | DRSC06298 | 8 | – | inactive
CG13170 | DRSC25159 | 3 | – | inactive
Sgs3 | DRSC11280 | 7 | – | inactive
Sgs3 | DRSC28210 | 2 | – | inactive
dao | DRSC01960 | 7 | – | inactive
dao | DRSC26014 | 5 | – | inactive
Cep135 | DRSC09345 | 6 | – | inactive
Cep135 | DRSC10244 | 4 | – | inactive
CG17059 | DRSC06654 | 8 | – | inactive
fidipidine | DRSC07618 | 6 | – | inactive
fidipidine | DRSC25394 | 10 | – | inactive
CG31924 | DRSC00689 | 5 | – | inactive
kon | DRSC02033 | 5 | – | inactive
CG40378 (retired record) | DRSC22174 | 9 | – | inactive
Cyp1 | DRSC20234 | 12 | – | inactive
Cyp1 | DRSC27284 | 5 | – | inactive
betaNACtes4 | DRSC19801 | 12 | – | inactive
CG7882 | DRSC04899 | 3 | – | inactive
ZnT33D | DRSC02591 | 3 | – | inactive
grk | DRSC03540 | 4 | – | inactive
ninaA | DRSC00830 | 2 | – | inactive
CG33262 | DRSC22893 | 11 | – | inactive
Lnk | DRSC16729 | 4 | – | inactive
Pstk + Tim9b | DRSC19504 | 8 | – | inactive
Pstk + Tim9b | DRSC20292 | 5 | – | inactive
Pstk + Tim9b | DRSC28671 | 4 | – | inactive
CG14693 | DRSC14916 | 1 | – | inactive
CG2611 | DRSC02710 | 4 | – | inactive
CG2611 | DRSC26640 | 8 | – | inactive
Cht4 | DRSC04603 | 9 | – | inactive
GstD4 | DRSC16685 | 3 | – | inactive
GstD4 | DRSC27765 | 5 | – | inactive
Mlc-c | DRSC18683 | 7 | – | inactive
Mlc-c | DRSC26543 | 9 | – | inactive
CG33095 | DRSC14441 | 10 | – | inactive
CG12643 | DRSC17849 | 10 | – | inactive
CG12643 | DRSC24898 | 6 | – | inactive
CG5114 | DRSC10482 | 4 | – | inactive
lectin-24Db | DRSC00553 | 5 | – | inactive
CanA-14F | DRSC23296 | 11 | – | inactive
CG8520 | DRSC07206 | 4 | – | inactive
ewg | DRSC18773 | 17 | – | inactive
ewg | DRSC26141 | 10 | – | inactive
Trm7-34 | DRSC16171 | 12 | – | inactive
CG9813 | DRSC16569 | 6 | – | inactive
CG9813 | DRSC26207 | 5 | – | inactive
timeout | DRSC12950 | 15 | – | inactive
timeout | DRSC17078 | 7 | – | inactive
timeout | DRSC17079 | 3 | – | inactive
timeout | DRSC17080 | 3 | – | inactive
timeout | DRSC17081 | 2 | – | inactive
timeout | DRSC21535 | 10 | – | inactive
GstO1 | DRSC10688 | 10 | – | inactive
GstO1 | DRSC26064 | 3 | – | inactive
RpS16 | DRSC04442 | 3 | – | inactive
RpS16 | DRSC29812 | 7 | – | inactive
Tsp3A | DRSC18656 | 14 | – | inactive
Tsp3A | DRSC25654 | 6 | – | inactive
SNCF | DRSC10115 | 7 | – | inactive
Ced-12 | DRSC02840 | 2 | – | inactive
Ced-12 | DRSC24035 | 13 | – | inactive
FLASH | DRSC06872 | 12 | – | inactive
FLASH | DRSC26747 | 8 | – | inactive
CG15260 | DRSC01977 | 4 | – | inactive
CG17568 | DRSC02628 | 7 | 14 | inactive
Obp56h | DRSC06433 | 11 | – | inactive
Obp56h | DRSC24257 | 6 | – | inactive
eag | DRSC19067 | 17 | – | inactive
eag | DRSC20328 | 13 | – | inactive
eag | DRSC28295 | 2 | – | inactive
loco | DRSC15202 | 9 | – | inactive
loco | DRSC16989 | 8 | – | inactive
loco | DRSC27695 | 4 | – | inactive
brm | DRSC11330 | 1 | – | inactive
brm | DRSC26226 | 18 | – | inactive
CG15625 | DRSC00460 | 4 | – | inactive
CG15625 | DRSC29231 | 1 | – | inactive
CG32237 | DRSC08312 | 5 | – | inactive
CG32237 | DRSC08315 | 6 | – | inactive
CG32237 | DRSC29288 | 5 | – | inactive
chb | DRSC11469 | 170 | – | inactive
chb | DRSC39154 | 99 | – | inactive
CheB42c | DRSC04972 | 4 | – | inactive
CheB42c | DRSC27357 | 3 | – | inactive
mRRF1 | DRSC10421 | 6 | – | inactive
Odc2 | DRSC07483 | 5 | – | inactive
Odc2 | DRSC26384 | 4 | – | inactive
asRNA:CR42743 + CG34162 | DRSC01190 | 10 | – | inactive
CG11658 | DRSC09852 | 5 | – | inactive
Pngl | DRSC04914 | 11 | – | inactive
Sf3b6 | DRSC09972 | 10 | – | inactive
Sf3b6 | DRSC26462 | 9 | – | inactive
CG32719 | DRSC17525 | 7 | – | inactive
CG32719 | DRSC26765 | 6 | – | inactive
